Test results reported in PubChem BioAssay AID540276 (National Center for Advancing Translational Sciences (NCATS), 2011).
Out of some 300,000 compounds screened, about 5,400 (1.8%) were called active. This list was built around the results that the source calls inconclusive (neither active nor inactive); the mix of calls is not that of the screen. Calls follow the shape of the full dose curve; tested in HEK293 cells. Potencies beside an inconclusive call are fits to weak or partial responses and may not hold up.

Experiment: qHTS for inhibitors of binding or entry into cells for Marburg Virus
Conditions: Marburg virus pseudotyped entry inhibition, cell reporter; series mostly up to 37.8 µM
Potency is read from the fitted curve at half-maximal effect.

| SMILES | Potency |
| --- | --- |
| Oc1ccc(-c2[nH]ncc2-c2cnn(-c3ccccc3)c2)c(O)c1 | inactive |
| Cc1cc(NC(=O)CN(C)S(=O)(=O)c2ccc3c(c2)CCC(=O)N3)ccc1Br | inconclusive: 35.5 µM [inhibitor, single point] |
| CCN(CCCNC(=O)c1nn(-c2ccc(OC)cc2)c(=O)c2c1c1ccccc1n2C)c1cccc(C)c1 | inactive |
| Cn1nc(C(F)(F)F)c2cc(C(=O)Nc3ccc(Cl)cc3)sc21 | inconclusive: 20 µM [inhibitor, partial curve, poor fit] |
| CC1CCCN(S(=O)(=O)c2ccc(C(=O)Nc3nnc(C4CC4)o3)cc2)C1 (centres undefined) | inconclusive: 8.91 µM [inhibitor, partial curve] |
| CCCCC12CN3CC(C)(CN(C1)C3c1c(C)[nH]c(=O)[nH]c1=O)C2=O (centres undefined) | inactive |
| COc1cccc2c(Nc3ccccc3C)cc(C)nc12 | inactive |
| CCC(C)c1ccc(NC(=O)c2[nH]c(C)c(C(C)=O)c2C)cc1 (centres undefined) | inconclusive: 10 µM [activator, partial curve, poor fit] |
| Cc1ccc(C(=O)/C=C/Nc2ccccn2)cc1 | inconclusive: 1.26 µM [inhibitor, full curve, poor fit] |
| O=C(O)c1ccc(S(=O)(=O)N2CCC3(CC2)CC(=O)c2ccccc2O3)cc1 | inconclusive: 0.112 µM [activator, full curve, poor fit] |
| NC(=Nc1ccccc1)NN=Cc1c[nH]c2ccccc12 | inconclusive: 20 µM [inhibitor, single point] |
| CC(CCc1ccccc1)NC(=O)COC(=O)c1cccc2ccccc12 (centres undefined) | inconclusive: 5.62 µM [activator, single point] |
| CCOc1ccc(NS(=O)(=O)c2ccc(C(=O)N(C)Cc3cccc(OC)c3OC)cc2)cc1 | inconclusive: 2.82 µM [inhibitor, partial curve, poor fit] |
| COc1cc(/C=N/NC(=O)Nc2cccc3nsnc23)cc(OC)c1OC | inactive |
| Cc1cc(NC2CCCCC2)nc(NCc2ccccc2)n1 | active: 11.6 µM |
| CCOC(=O)c1nc(Nc2cccc(C)c2)c2ccccc2n1 | inconclusive: 35.5 µM [inhibitor, partial curve, poor fit] |
| Cc1ccc(-n2c(SCC(=O)NCCN3C(=O)CSC3=O)nnc2-c2cccc(C)c2)cc1 | inconclusive: 5.01 µM [inhibitor, full curve, poor fit] |
| O=C(COC(=O)COc1ccc(Cl)cc1Br)NCc1cccs1 | inactive |
| CCOC(=O)c1cn[nH]c1NC(=S)Nc1ccc(Cl)cc1 | inconclusive: 22.4 µM [inhibitor, single point] |

Individual results from the list.
Under Potency, CCOC(=O)c1nc(Nc2cccc(C)c2)c2ccccc2n1 has the entry inconclusive: 35.5 µM [inhibitor, partial curve, poor fit]
Under Potency, CCCCC12CN3CC(C)(CN(C1)C3c1c(C)[nH]c(=O)[nH]c1=O)C2=O (centres undefined) has the entry inactive
